From the M2OR odorant receptor database
The entries are a selection whose mix differs from that of the whole data set. The calls were merged from several studies; some rest on single wells. This is one part of the list.

Tests used:
Conditions in all cases: stereoisomer not certain
OR6M1 (Homo sapiens) = target: T1, OR6M1 (Homo sapiens) (UniProt Q8NGM8)
T1 sequence (whole entry): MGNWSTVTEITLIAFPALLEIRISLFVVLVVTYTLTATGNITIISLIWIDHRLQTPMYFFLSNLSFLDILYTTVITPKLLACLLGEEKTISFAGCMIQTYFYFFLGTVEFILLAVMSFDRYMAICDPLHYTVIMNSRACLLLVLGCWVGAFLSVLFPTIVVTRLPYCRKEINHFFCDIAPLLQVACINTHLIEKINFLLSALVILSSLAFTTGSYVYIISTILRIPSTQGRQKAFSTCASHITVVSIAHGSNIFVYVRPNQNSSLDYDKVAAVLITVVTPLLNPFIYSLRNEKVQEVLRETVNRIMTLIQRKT
Procedure, shortened: (§1)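 Each entry records the cell line, G-protein, co-transfected protein and tags used. Methods varied with the source, often transient luciferase assays in mammalian cell lines. A receptor–molecule pair is called responsive (active) if the original authors judged its signal statistically different from baseline and non-responsive (inactive) otherwise.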

OR6N1 = test system: T2, OR6N1
T2 sequence (whole entry): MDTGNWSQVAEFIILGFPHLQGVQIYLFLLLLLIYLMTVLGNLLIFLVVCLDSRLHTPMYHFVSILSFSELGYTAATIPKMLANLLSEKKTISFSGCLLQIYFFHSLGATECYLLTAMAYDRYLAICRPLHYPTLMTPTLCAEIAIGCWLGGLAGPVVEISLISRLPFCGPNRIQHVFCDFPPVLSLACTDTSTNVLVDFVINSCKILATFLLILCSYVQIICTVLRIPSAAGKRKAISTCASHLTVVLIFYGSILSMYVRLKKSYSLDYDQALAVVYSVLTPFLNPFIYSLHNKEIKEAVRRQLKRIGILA
Procedure, shortened: as §1

OR6N2 (Homo sapiens) = target: T3, OR6N2 (Homo sapiens) (UniProt Q8NGY6)
T3 sequence (whole entry): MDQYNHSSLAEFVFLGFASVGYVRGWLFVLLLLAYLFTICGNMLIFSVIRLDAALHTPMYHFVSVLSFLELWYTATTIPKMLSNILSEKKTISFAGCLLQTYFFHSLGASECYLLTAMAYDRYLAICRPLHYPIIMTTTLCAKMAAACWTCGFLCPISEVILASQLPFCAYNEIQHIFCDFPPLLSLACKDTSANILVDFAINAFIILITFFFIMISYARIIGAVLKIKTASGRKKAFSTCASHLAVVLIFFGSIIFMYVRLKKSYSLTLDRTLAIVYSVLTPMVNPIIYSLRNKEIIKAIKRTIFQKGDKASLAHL
Procedure, shortened: as §1

OR6P1 (Homo sapiens) = target: T4, OR6P1 (Homo sapiens) (UniProt Q8NGX9)
T4 sequence (whole entry): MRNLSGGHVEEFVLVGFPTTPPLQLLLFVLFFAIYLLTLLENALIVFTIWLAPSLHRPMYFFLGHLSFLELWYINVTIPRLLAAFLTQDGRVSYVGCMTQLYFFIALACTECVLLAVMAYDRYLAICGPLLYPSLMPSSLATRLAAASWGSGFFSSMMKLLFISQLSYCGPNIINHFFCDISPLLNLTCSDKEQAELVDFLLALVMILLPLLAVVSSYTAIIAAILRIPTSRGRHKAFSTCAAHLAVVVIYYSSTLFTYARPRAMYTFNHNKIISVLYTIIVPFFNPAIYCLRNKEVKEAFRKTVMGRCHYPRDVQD
Procedure, shortened: as §1

OR6Q1 (Homo sapiens) = target: T5, OR6Q1 (Homo sapiens) (UniProt Q8NGQ2)
T5 sequence (whole entry): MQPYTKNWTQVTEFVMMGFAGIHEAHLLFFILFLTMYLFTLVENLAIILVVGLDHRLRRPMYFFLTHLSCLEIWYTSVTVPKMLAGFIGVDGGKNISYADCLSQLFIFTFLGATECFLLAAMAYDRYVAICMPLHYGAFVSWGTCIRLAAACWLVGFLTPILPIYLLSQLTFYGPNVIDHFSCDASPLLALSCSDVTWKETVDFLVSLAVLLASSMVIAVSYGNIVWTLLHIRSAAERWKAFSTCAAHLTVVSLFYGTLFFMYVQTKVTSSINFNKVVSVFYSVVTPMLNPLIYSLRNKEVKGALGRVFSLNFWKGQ
Procedure, shortened: as §1

OR6S1 = test system: T6, OR6S1
T6 sequence (whole entry): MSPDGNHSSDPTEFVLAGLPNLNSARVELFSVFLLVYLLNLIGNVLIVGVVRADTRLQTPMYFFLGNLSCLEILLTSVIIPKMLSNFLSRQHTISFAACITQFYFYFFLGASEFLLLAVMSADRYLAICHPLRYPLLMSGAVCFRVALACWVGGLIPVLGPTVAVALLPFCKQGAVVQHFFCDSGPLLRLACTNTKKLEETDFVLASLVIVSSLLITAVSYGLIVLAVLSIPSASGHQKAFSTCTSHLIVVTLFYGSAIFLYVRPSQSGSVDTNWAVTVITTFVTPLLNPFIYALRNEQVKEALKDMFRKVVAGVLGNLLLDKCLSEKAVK
Procedure, shortened: as §1

OR6T1 = test system: T7, OR6T1
T7 sequence (whole entry): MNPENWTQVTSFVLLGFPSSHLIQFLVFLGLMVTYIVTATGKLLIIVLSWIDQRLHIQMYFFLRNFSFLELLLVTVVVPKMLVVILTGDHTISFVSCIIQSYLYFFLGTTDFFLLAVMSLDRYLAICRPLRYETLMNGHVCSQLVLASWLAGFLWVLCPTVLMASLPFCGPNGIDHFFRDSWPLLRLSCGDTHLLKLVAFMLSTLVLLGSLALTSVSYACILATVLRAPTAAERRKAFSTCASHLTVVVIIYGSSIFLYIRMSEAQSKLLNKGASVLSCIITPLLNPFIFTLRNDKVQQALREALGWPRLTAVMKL
Procedure, shortened: as §1

OR6V1 (Homo sapiens) = target: T8, OR6V1 (Homo sapiens) (UniProt Q8N148)
T8 sequence (whole entry): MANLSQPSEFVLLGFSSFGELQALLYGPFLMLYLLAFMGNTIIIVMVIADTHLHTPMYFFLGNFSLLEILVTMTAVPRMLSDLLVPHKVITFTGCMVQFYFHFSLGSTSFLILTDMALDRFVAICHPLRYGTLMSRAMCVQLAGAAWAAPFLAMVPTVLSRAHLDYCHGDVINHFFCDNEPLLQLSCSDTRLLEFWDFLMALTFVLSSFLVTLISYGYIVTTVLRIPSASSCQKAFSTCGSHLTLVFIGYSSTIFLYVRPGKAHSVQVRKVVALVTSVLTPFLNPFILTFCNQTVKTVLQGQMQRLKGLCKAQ
Procedure, shortened: as §1

OR6X1 (Homo sapiens) = target: T9, OR6X1 (Homo sapiens) (UniProt Q8NH79)
T9 sequence (whole entry): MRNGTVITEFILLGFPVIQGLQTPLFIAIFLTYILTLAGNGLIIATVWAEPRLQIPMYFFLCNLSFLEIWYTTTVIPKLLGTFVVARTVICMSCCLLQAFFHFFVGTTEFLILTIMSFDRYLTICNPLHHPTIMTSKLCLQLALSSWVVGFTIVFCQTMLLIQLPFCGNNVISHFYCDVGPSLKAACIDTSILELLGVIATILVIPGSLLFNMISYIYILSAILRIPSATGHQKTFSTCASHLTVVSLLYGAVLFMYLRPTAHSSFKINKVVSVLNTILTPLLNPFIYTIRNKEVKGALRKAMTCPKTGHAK
Procedure, shortened: as §1

OR6Y1 = test system: T10, OR6Y1
T10 sequence (whole entry): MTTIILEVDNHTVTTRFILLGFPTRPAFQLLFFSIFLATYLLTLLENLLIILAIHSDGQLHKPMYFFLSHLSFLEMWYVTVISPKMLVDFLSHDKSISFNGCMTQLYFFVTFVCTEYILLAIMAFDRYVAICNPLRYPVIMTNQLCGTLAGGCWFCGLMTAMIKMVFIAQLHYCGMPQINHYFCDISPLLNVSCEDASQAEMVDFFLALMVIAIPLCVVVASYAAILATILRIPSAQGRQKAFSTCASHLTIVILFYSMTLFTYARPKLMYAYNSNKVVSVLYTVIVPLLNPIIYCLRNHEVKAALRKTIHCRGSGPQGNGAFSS
Procedure, shortened: as §1

OR7A10 (Homo sapiens) = target: T11, OR7A10 (Homo sapiens) (UniProt O76100)
T11 sequence (whole entry): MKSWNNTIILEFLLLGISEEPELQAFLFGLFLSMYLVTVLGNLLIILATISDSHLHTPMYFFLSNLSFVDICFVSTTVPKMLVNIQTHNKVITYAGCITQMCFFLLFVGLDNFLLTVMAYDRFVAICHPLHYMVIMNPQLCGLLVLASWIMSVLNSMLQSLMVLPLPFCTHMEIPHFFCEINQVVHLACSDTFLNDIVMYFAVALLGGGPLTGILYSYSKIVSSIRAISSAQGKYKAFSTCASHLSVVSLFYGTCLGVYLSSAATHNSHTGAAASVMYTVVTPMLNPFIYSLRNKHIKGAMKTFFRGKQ
Procedure, shortened: as §1

OR7A17 (Homo sapiens) = target: T12, OR7A17 (Homo sapiens) (UniProt O14581)
T12 sequence (whole entry): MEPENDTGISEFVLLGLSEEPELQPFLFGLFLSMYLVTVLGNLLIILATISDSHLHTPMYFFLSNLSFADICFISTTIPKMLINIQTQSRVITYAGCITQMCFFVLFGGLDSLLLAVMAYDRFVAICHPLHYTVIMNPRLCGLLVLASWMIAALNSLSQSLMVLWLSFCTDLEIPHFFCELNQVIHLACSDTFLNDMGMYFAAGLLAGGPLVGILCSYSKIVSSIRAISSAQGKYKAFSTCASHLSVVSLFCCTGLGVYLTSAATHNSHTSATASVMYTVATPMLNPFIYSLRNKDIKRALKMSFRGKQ
Procedure, shortened: as §1

OR7A5 (Homo sapiens) = target: T13, OR7A5 (Homo sapiens) (UniProt Q15622)
T13 sequence (whole entry): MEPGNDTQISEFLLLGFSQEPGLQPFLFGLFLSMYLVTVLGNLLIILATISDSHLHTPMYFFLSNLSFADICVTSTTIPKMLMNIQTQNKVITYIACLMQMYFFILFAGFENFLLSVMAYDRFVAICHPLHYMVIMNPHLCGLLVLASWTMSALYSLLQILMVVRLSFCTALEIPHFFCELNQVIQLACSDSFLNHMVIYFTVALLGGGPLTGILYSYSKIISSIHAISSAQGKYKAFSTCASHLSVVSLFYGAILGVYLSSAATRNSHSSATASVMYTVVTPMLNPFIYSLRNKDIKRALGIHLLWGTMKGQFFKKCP
Procedure, shortened: as §1

OR7C1 = test system: T14, OR7C1
T14 sequence (whole entry): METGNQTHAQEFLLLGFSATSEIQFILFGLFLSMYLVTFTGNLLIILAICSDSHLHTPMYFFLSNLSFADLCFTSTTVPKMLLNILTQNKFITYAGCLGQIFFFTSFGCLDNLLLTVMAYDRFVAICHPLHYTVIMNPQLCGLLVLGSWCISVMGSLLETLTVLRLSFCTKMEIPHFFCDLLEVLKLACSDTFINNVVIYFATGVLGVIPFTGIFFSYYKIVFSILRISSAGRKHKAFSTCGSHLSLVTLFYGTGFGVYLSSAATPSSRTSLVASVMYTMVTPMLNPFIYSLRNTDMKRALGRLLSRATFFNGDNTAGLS
Procedure, shortened: as §1

SMILES | odorant receptor agonist call (OR6M1 (Homo sapiens)) | odorant receptor agonist call (OR6N1) | odorant receptor agonist call (OR6N2 (Homo sapiens)) | odorant receptor agonist call (OR6P1 (Homo sapiens)) | odorant receptor agonist call (OR6Q1 (Homo sapiens)) | odorant receptor agonist call (OR6S1) | odorant receptor agonist call (OR6T1) | odorant receptor agonist call (OR6V1 (Homo sapiens)) | odorant receptor agonist call (OR6X1 (Homo sapiens)) | odorant receptor agonist call (OR6Y1) | odorant receptor agonist call (OR7A10 (Homo sapiens)) | odorant receptor agonist call (OR7A17 (Homo sapiens)) | odorant receptor agonist call (OR7A5 (Homo sapiens)) | odorant receptor agonist call (OR7C1)
CC(=O)OC1CC2CCC1(C)C2(C)C (centres undefined) | inactive | inactive | inactive | inactive | inactive | inactive | inactive | inactive | inactive | inactive | inactive | inactive | inactive | inactive
CCC=CCCO | inactive | inactive | inactive | inactive | inactive | inactive | inactive | inactive | inactive | inactive | inactive | inactive | inactive | inactive
CCCC(=O)O | inactive | inactive | inactive | inactive | inactive | inactive | inactive | inactive | inactive | inactive | inactive | inactive | inactive | inactive
CCCCCCCCCCC=O | inactive | inactive | inactive | inactive | inactive | inactive | inactive | inactive | inactive | inactive | inactive | inactive | inactive | inactive
CCCCCC(=O)O | inactive | inactive | inactive | inactive | inactive | inactive | inactive | inactive | inactive | inactive | inactive | inactive | inactive | inactive
CC1COCc2cc3c(cc21)C(C)(C)C(C)C3(C)C (centres undefined) | active | active | active | inactive | inactive | active | inactive | active | inactive | active | active | active | active | active
